Data as given in patent US11661433B2, “Near-IR activatable fluorescent small molecules with dual modes of cytotoxicity” (VIRGINIA COMMONWEALTH UNIVERSITY, priority 2018, dated 2023).

Assay: Singlet oxygen generation by DPBF method
Assay type: physicochemical
Conditions: near-IR light 720-740 nm

In the case of `CC(=O)C(=C(C)O)C1=C(C=CC2=[N+](C)c3ccccc3C2(C)C)CCC1=CC=C1N(C)c2ccccc2C1(C)C.[Cl-]` [IR797-acac], the “t1/2^DPBF (decrease in DPBF absorbance at 415 nm)” value was 6 min and the “singlet oxygen quantum yield φΔ” value (aerated DMF, relative to methylene blue) was 0.017.
